Source: paper PMC5045193
Results are given in words; binding and its absence hold for the method and conditions named. Binding seen in cells or lysates may run through a third protein. A yes stands for co-enrichment or nearness to the bait. Other partners may have been found.

Target: T1, SZY-20 (C. elegans (endogenous in C. elegans embryos)) (UniProt G5EGU9)
T1 sequence: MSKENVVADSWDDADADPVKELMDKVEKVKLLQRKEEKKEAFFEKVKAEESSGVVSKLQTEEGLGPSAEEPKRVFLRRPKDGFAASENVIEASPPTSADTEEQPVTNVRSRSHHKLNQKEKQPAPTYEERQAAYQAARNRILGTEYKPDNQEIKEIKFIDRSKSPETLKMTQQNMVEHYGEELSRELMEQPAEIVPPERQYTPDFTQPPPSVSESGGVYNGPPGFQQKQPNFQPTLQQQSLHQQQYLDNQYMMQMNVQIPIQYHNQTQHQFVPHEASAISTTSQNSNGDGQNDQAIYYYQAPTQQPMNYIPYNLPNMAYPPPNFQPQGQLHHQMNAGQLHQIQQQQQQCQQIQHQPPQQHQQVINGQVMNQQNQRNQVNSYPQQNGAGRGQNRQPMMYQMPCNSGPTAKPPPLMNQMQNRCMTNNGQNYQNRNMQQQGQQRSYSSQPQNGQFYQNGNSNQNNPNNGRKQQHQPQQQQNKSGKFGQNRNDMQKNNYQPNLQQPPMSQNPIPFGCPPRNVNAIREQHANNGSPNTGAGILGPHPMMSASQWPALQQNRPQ
Test: affinity purification with mass spectrometry; IP of endogenous SZY-20 with anti-SZY-20 from worm protein lysates, followed by mass spectrometry

B1: PAB-1 (protein, UniProt Q9U302 1-646)
chain: MEMNVAAPAAAVAGAAAPQPGQNQTGSSYTMASLYVGDLHPDVNESILFEKFSAAGPVLSIRVCRDNATRLSLGYAYVNFQQPADAERAMDTMNFEALHGKPMRIMWSQRDPAMRRSGAGNIFIKNLDKVIDNKSIYDTFSLFGNILSCKVAIDEDGFSKGYGFVHFETEEAAQNAIQKVNGMLLAGKKVFVGKFQPRAQRNRELGETAKQFTNVYVKNFGDHYNKETLEKLFAKFGNITSCEVMTVEGKSKGFGFVAFANPEEAETAVQALHDSTIEGTDLKLHVCRAQKKSERHAELKKKHEQHKAERMQKYQGVNLYVKNLDETVDDDGLKKQFESYGNITSAKVMTDENGRSKGFGFVCFEKPEEATSAVTEMNSKMVCSKPLYVAIAQRKEDRRAQLASQYMQRLASMRMHGNVPGAAMYNPTQPGPGYYVANPMQQQRNFAGGQQMVRPGGRWGMQNQYPVQNQYMMAQGPGVYQNRMGRPQNQQGGPRGPPQQYNQVAQGGVRMQGPPRTQNPGVQQQNVPRPPQQQQQQRPAPTGPKAPPQPYQAYQQRPQGIVIGGQEPLTSAMLAAAAPQEQKQLLGERIYALIEKLYPGHKDAGKITGMMLEIDNSELIMMLQDSELFRSKVDEAASVLVSAQKQ
binding: binds
